Literature values as cited in patent US20080317843A1, “NANOPARTICULATE FORMULATIONS OF MODAFINIL” (Elan Corporation plc, priority 2006, published 2008).
Some of these results come from one statement about several compounds together. At least one compound was matched to its structure with a doubt left.

Details: multiple dosing 200-600 mg/day once daily, healthy volunteers

NC(=O)C[S+]([O-])C(c1ccccc1)c1ccccc1 (centres unmarked) [modafinil, 2-[(diphenylmethyl)sulfinyl]acetamide]
time to apparent steady state: 2 to 4 days

NC(=O)C[S@@+]([O-])C(c1ccccc1)c1ccccc1 (single isomer, unassigned) [l-isomer]
time to apparent steady state: 2 to 4 days
